Laboratory results from PubChem BioAssay AID2685 (National Center for Advancing Translational Sciences (NCATS), 2010).
Some of the results follow. Further columns of the screen follow, without active or inactive calls. Most of these compounds were active or inconclusive in the main read-out, so they are no random draw. The note in brackets gives the kind of curve behind each potency; many fits are weak.

Experiment: qHTS Assay for Lipid Storage Modulators in Drosophila S3 Cells;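 on cell number change: cells counted by Cell Tracker Red CMTPX staining in the red channel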
Conditions: BODIPY lipid droplet fluorescence, 18-24 h; for cell number change: measured here: cell count max response, cells fed with added oleic acid
Summary of the method: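 Drosophila S3 cells got compounds at several concentrations plus oleic acid (400 uM solution). Laser-scanning cytometry with 488 nm excitation read lipid droplets at 500-530 nm and cells at 575-640 nm. Percent activity was relative to 20 uM Triacsin C.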

[1] = measured here: lipid fluorescence (Fed channel) AC50, cells fed with added oleic acid
[2] = measured here: cell number channel AC50, cells fed with added oleic acid

SMILES	cell number change [%]	AC50 [1]	AC50 [2]
CSc1nc2cc3c(cc2n1C(=O)c1ccc(C)cc1)OCCO3	-14.1	32600 nM [falling, partial curve, poor fit]	
O=C(NC1CCCc2c1cnn2-c1ccc(F)cc1F)c1ccccn1 (stereo not given)	-27.9	5.17 nM [falling, full curve]	13 nM [falling, full curve]
O=C(CN(c1cccc(C(F)(F)F)c1)S(=O)(=O)c1ccccc1)N1CCOCC1	-8.54		
COc1cccc(-n2c(SCC(=O)N3CCc4ccccc43)nnc2-c2c[nH]c3ccccc23)c1		580 nM [rising, partial curve, poor fit]	
COc1ccccc1CNC(=O)CN1CCN(c2ccc(C(C)=O)cc2)CC1	27.8		
Cc1ccccc1-c1nc(S(=O)(=O)c2ccc(Br)cc2)c(NCc2cccnc2)o1	9	2910 nM [rising, partial curve]	
O=C(CN1CCN(S(=O)(=O)c2ccc(Br)cc2)CC1)Nc1ccc(F)cc1F		580 nM [falling, single point]	
CCCOc1ccc(/C=C/C(=O)OCC(=O)N(C)c2c(N)n(Cc3ccccc3)c(=O)[nH]c2=O)cc1OCC	-46.2	116 nM [rising, full curve, poor fit]	18400 nM [falling, partial curve, poor fit]
CCCOc1ncnc2c1sc1nc3c(cc12)COC(C)(C)C3	20	16400 nM [rising, partial curve, poor fit]	
CC(C)(C)c1ccc(OCC(O)CSc2ncn[nH]2)cc1 (stereo not given)	105	2310 nM [falling, partial curve]	
O=C(NC1CCCCC1)N1CCCC(c2nc(-c3ccc(S(=O)(=O)N4CCCC4)cc3)no2)C1 (stereo not given)	3.45	20600 nM [falling, single point]	820 nM [rising, single point]
CC(=O)c1cccc(NC(=O)c2ccc(C)c(S(=O)(=O)N3CCOCC3)c2)c1	-6.67	6510 nM [rising, single point]	
O=C(Nc1ccccc1)C12CC3CC(C1)CC(n1cnc([N+](=O)[O-])n1)(C3)C2	-9.21		
O=C(Nc1ccc(Cl)c(S(=O)(=O)N2CCOCC2)c1)c1ccc(OCC2CCCO2)cc1 (stereo not given)	13	4.61 nM [rising, full curve, poor fit]	
CCOC(=O)C1=C(O)/C(=C/c2ccc(OCC(=O)O)c(OC)c2)SC1=Nc1ccc(OC)cc1	5.23		
CCOC(=O)C1CCN(CCC(=O)Nc2ccccc2Cl)CC1	24.1	16400 nM [rising, single point]	
COc1cccc(CNC(=O)C2CCCN(S(=O)(=O)N3CC(C)CC(C)C3)C2)c1 (stereo not given)	17.7	651 nM [rising, single point]	
COc1ccc(OC)c(CN2CCC(N3CCC(C(=O)NC4CC4)CC3)CC2)c1	-18.1		
Nc1nnc(Cc2ccc(Cl)cc2Cl)s1	4.92	731 nM [falling, single point]	
COc1ccc(NS(=O)(=O)c2ccc(C)c(NC(=O)C3CCCO3)c2)cc1 (stereo not given)	19.3	6510 nM [falling, single point]	

SMILES	cell number change [%]	AC50 [1]	AC50 [2]
COc1ccc(/C=N/NC(=O)C2C(=O)NCC2c2ccccc2)c(OC)c1 (stereo not given)	1.38	6510 nM [rising, partial curve]	
COc1ccc(-n2nnnc2CNC(=O)c2ccc(S(=O)(=O)N3CCOCC3)cc2)cc1	-26.3	23100 nM [falling, single point]	
CCCCCCn1nc(C(=O)OCC(=O)NC2CCS(=O)(=O)C2)c2ccccc2c1=O (stereo not given)	17.9	146 nM [rising, full curve, poor fit]	
C=CCN1C(=O)C(Cc2ccc(OC)cc2)SC1=Nc1ccc(C(=O)O)cc1 (stereo not given)	-11		
Cc1ccc(N=Cc2c(O)n(-c3cc(Cl)ccc3N3CCOCC3)c(=O)c3ccccc23)cc1C	44.6		14600 nM [rising, partial curve, poor fit]
CC(C)c1ccc(C2(C)NC(=O)N(CC(=O)NCC3COc4ccccc4O3)C2=O)cc1 (stereo not given)	6.53	291 nM [rising, full curve, poor fit]	
O=C(Cn1nnc(-c2ccccc2)n1)NCc1ccccc1	-1.56		
Cn1nccc1NC(=O)NC(=O)c1c(Cl)cccc1Cl	-0.679		
Cc1ccc(C)c(N2CCN(C(=O)c3ccc4c(c3)c(C)c(C)n4C)CC2)c1	13.1	29100 nM [rising, single point]	
CCOC(=O)c1csc(NC(=O)COc2ccc(Cl)cc2Cl)n1	35		23100 nM [rising, single point]
Cc1ccc(S(=O)(=O)n2nc(-c3cccnc3)nc2N)cc1	11.5		
CCOC(=O)c1oc2ccccc2c1NC(=O)CN1CCN(C)CC1	2.18		
Cn1cccc1C(=O)NC(=O)CSc1nnc(C2CC2)n1-c1ccccc1			1640 nM [rising, partial curve, poor fit]
S=C(Nc1ccc(Cl)cc1)c1nc2ccccc2[nH]1	2.73	14600 nM [falling, single point]	
COc1ccc(C(=O)NCc2nnc(SCC(=O)N3CCC(C)CC3)o2)cc1	2.44	731 nM [falling, single point]	
CC(C)C[C@H](NC(=O)c1nc[nH]c1C(=O)N1CCNCC1)C(=O)OC(C)(C)C	23.2		
Cc1ccc(/C=C/C(=O)O)cc1S(=O)(=O)Nc1ccccc1C(=O)O	15	146 nM [rising, single point]	
Cc1ccc(C(=O)Nc2cccc(NC(=O)CN3CCCCC3)c2)cc1	7.33	6510 nM [rising, partial curve]	
CCc1ccccc1NC(=O)CNC(=O)CNC(=O)C1CCCCC1	6.6	820 nM [falling, single point]	
COc1ccc(C2N(c3ccc(Cl)cc3)C(=O)C3CCCN32)cc1 (stereo not given)	102	29100 nM [rising, partial curve]	16400 nM [rising, single point]

Only AC50 [1], for 2 of the compounds above:
SMILES,AC50 [1]
Cc1ccc(/C=C/C(=O)O)cc1S(=O)(=O)Nc1ccccc1C(=O)O,"146 nM [rising, single point]"
Cc1ccc(C(=O)Nc2cccc(NC(=O)CN3CCCCC3)c2)cc1,"6510 nM [rising, partial curve]"
